PubChem BioAssay AID1508597 | Cure First | 2020

Aim: 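Knock-downs altering ovarian cancer cell survival with or without PARP inhibitor rucaparib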 (primary screen)
Cells: human ovarian carcinoma lines grown from tumours: OCI-P5x (papillary serous) and OCI-C5x (clear cell)
Reagents: siRNA pool against human genes, 1.25 pmol siRNA per well
Time to read-out: 72 h or 96 h, depending on the cell culture
Conditions: rucaparib 20 µM (about IC30) or vehicle, present until read-out
Rucaparib or vehicle: Vehicle
Cell line: OCI-C5x (clear cell)
Read-out: 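ATP luminescence measured at 72 or 96 h according to the culture, then normalised and expressed as percent viability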
Scale: viability, normalised: higher = more viable cells remaining
Hit rule: 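Active when normalised viability falls below 80 percent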
Calls: active = viability under 80%; inactive = viability 80% or more
This is an unselected part of the about 2,100 reagents, under one of the conditions tested. 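Calls flag viability under 80% in either arm, not effects specific to rucaparib; the reference for percent is not stated.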 Unmarked entries are inactive. Reagent sequences are not shown. Not stated in the record: the 100% reference.

no.	Gene	technical replicate	viability, normalised (%)
1	INO80 (INO80 complex ATPase subunit)	1	33.4 (active)
2	INO80 (INO80 complex ATPase subunit)	2	34.1 (active)
3	INO80 (INO80 complex ATPase subunit)	3	44 (active)
4	GEMIN4 (gem nuclear organelle associated protein 4)	1	33.3 (active)
5	GEMIN4 (gem nuclear organelle associated protein 4)	2	24.9 (active)
6	GEMIN4 (gem nuclear organelle associated protein 4)	3	38 (active)
7	SCML2 (Scm polycomb group protein like 2)	1	48.7 (active)
8	SCML2 (Scm polycomb group protein like 2)	2	45.6 (active)
9	SCML2 (Scm polycomb group protein like 2)	3	45.7 (active)
10	PSENEN (presenilin enhancer, gamma-secretase subunit)	1	50.7 (active)
11	PSENEN (presenilin enhancer, gamma-secretase subunit)	2	53.1 (active)
12	PSENEN (presenilin enhancer, gamma-secretase subunit)	3	50.1 (active)
13	BRAF (B-Raf proto-oncogene, serine/threonine kinase)	1	50.8 (active)
14	BRAF (B-Raf proto-oncogene, serine/threonine kinase)	2	53.5 (active)
15	BRAF (B-Raf proto-oncogene, serine/threonine kinase)	3	67.3 (active)
16	EPC2 (enhancer of polycomb 2)	1	52.5 (active)
17	EPC2 (enhancer of polycomb 2)	2	66.2 (active)
18	EPC2 (enhancer of polycomb 2)	3	57.6 (active)
19	EPHA10 (EPH receptor A10)	1	55.1 (active)
20	EPHA10 (EPH receptor A10)	2	53.6 (active)
21	EPHA10 (EPH receptor A10)	3	40 (active)
22	MAP4K4 (mitogen-activated protein kinase kinase kinase kinase 4)	1	70.8 (active)
23	MAP4K4 (mitogen-activated protein kinase kinase kinase kinase 4)	2	36.9 (active)
24	MAP4K4 (mitogen-activated protein kinase kinase kinase kinase 4)	3	67.2 (active)
25	RRM1 (ribonucleotide reductase catalytic subunit M1)	1	28.5 (active)
26	RRM1 (ribonucleotide reductase catalytic subunit M1)	2	27.3 (active)
27	RRM1 (ribonucleotide reductase catalytic subunit M1)	3	19.2 (active)
28	MED24 (mediator complex subunit 24)	1	42.6 (active)
29	MED24 (mediator complex subunit 24)	2	57.2 (active)
30	MED24 (mediator complex subunit 24)	3	51.5 (active)
31	CLDN16 (claudin 16)	1	25.9 (active)
32	CLDN16 (claudin 16)	2	31.3 (active)
33	CLDN16 (claudin 16)	3	32.5 (active)
34	BNIP2 (BCL2 interacting protein 2)	1	45.3 (active)
35	BNIP2 (BCL2 interacting protein 2)	2	48.2 (active)
36	BNIP2 (BCL2 interacting protein 2)	3	47.6 (active)
37	PRMT1 (protein arginine methyltransferase 1)	1	74.8 (active)
38	PRMT1 (protein arginine methyltransferase 1)	2	66.3 (active)
39	PRMT1 (protein arginine methyltransferase 1)	3	64.7 (active)
40	EPB41L5 (erythrocyte membrane protein band 4.1 like 5)	1	52.3 (active)
41	EPB41L5 (erythrocyte membrane protein band 4.1 like 5)	2	57.4 (active)
42	EPB41L5 (erythrocyte membrane protein band 4.1 like 5)	3	64.3 (active)
43	DDX52 (DExD-box helicase 52)	1	57.4 (active)
44	DDX52 (DExD-box helicase 52)	2	39.5 (active)
45	DDX52 (DExD-box helicase 52)	3	41.9 (active)
46	PTK2B (protein tyrosine kinase 2 beta)	1	46.3 (active)
47	PTK2B (protein tyrosine kinase 2 beta)	2	67.2 (active)
48	PTK2B (protein tyrosine kinase 2 beta)	3	60.6 (active)
49	PCDHB13 (protocadherin beta 13)	1	43.5 (active)
50	PCDHB13 (protocadherin beta 13)	2	33.3 (active)
51	PCDHB13 (protocadherin beta 13)	3	34.3 (active)
52	PMS2P4	1	64.7 (active)
53	PMS2P4	2	56.2 (active)
54	PMS2P4	3	70.5 (active)
55	AICDA (activation induced cytidine deaminase)	1	67.7 (active)
56	AICDA (activation induced cytidine deaminase)	2	45.3 (active)
57	AICDA (activation induced cytidine deaminase)	3	66.9 (active)

6 neighbouring reagents from above, quoted:
no.	Gene	technical replicate	viability, normalised (%)
20	EPHA10 (EPH receptor A10)	2	53.6 (active)
21	EPHA10 (EPH receptor A10)	3	40 (active)
22	MAP4K4 (mitogen-activated protein kinase kinase kinase kinase 4)	1	70.8 (active)
23	MAP4K4 (mitogen-activated protein kinase kinase kinase kinase 4)	2	36.9 (active)
24	MAP4K4 (mitogen-activated protein kinase kinase kinase kinase 4)	3	67.2 (active)
25	RRM1 (ribonucleotide reductase catalytic subunit M1)	1	28.5 (active)
